For the assay, the target named is T1, murine Sca-1 (stem cell antigen-1) (murine) (UniProt P05533).
T1 sequence (chain, GPI-anchored membrane protein): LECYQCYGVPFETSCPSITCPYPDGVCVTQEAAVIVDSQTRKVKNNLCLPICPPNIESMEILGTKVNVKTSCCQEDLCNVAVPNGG
Nature of the assay: western blot of lysates of differentiating C2C12 myoblasts (association; method not described further). A general note: A western blot detects proteins with antibodies after separation by electrophoresis.

The chains behind the UniProt entries cited, without tags or fusion partners. Residues count along the entry.
UniProt P09055, residues 21-798: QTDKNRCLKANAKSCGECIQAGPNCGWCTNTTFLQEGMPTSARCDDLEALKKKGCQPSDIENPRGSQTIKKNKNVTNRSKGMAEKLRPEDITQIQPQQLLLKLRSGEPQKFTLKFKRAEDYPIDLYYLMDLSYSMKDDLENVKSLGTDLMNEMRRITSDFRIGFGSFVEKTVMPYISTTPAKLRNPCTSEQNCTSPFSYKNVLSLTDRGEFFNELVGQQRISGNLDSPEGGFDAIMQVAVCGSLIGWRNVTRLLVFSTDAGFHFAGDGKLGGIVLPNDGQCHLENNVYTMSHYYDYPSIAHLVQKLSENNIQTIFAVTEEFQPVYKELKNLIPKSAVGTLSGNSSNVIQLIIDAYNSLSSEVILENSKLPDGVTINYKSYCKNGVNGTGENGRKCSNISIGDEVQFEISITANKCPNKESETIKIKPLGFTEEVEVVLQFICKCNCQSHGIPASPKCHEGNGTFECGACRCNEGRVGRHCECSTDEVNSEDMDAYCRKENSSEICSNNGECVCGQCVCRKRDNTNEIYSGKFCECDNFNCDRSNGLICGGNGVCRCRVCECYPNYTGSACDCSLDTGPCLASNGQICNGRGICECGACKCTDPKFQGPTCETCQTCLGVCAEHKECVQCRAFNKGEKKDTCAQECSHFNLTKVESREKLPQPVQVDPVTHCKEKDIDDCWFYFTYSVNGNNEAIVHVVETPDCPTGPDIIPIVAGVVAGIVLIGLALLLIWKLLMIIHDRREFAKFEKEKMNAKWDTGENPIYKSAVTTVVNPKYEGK

No constants are given. Whether binding was seen depends on the method and setting. Some results given as binding are weak or reduced against the parent protein; the word gives no strength.

For the substance “beta1-integrin (from UniProt P09055 21-798) (receptor)”, the binding result is on record as “binds”.

The values above are taken from patent US20050260202A1, “Methods for producing proliferating muscle cells” (The Regents of the University of California, priority 2004, published 2005).
